Test results from paper PMC9352765.
No constants are given. Whether binding was seen depends on the method and setting. Binding seen in cells or lysates may run through a third protein. Binding calls can cover weak binding; strength is not graded here.

Target: T1, Syt13-BirA recombinant protein (mouse) (UniProt Q9EQT6)
T1 sequence: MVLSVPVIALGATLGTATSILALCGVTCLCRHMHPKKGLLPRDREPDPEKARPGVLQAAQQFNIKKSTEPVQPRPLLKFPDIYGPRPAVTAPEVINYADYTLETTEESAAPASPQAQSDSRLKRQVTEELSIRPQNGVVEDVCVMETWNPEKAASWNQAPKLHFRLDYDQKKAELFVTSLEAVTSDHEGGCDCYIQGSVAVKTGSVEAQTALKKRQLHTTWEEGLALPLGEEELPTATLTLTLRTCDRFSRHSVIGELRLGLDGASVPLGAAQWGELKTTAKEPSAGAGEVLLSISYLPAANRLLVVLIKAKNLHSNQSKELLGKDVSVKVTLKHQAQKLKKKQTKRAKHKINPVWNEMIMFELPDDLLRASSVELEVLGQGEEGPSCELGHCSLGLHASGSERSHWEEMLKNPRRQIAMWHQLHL
Test: co-IP; MDCK cells; called co-IP in the results; the methods tell only of the precipitation on NeutrAvidin beads of the BioID approach, followed by western blot

| binding | Substance |
| --- | --- |
| binds | Small GTPase Rab5 (canine (endogenous in MDCK)) |
| binds | Small GTPase Rab7 (canine (endogenous in MDCK)) |
| binds | Small GTPase Rab11 (canine (endogenous in MDCK)) |
| binds | hepatocyte growth factor-regulated tyrosine kinase substrate (canine (endogenous in MDCK)) |
